Test results: paper PMC11245485
For at least one entry, the source does not settle the construct or the ends of the probe. For part of these data: The comparison behind a weaker result is the experiment's own reference, which may not be listed here. At least one verdict rests on a figure or table, not on a statement of the authors. Where a protein sequence is shown, tags need not be part of it.

Key:
[1] = target: T1, GST-ONAC023 (Oryza sativa (rice)) (UniProt Q6H8A9); assay: competition EMSA; details: LightShift EMSA kit binding buffer (composition not given), room temperature, competitor 20 min then 1 µL of 10 µM FAM probe 20 min, 6% PAGE, 0.5x TBE, 4 °C, recombinant protein, residues 1-252, protein details: GST (N-terminal, pGEX-4T-1)
T1 sequence (looked up): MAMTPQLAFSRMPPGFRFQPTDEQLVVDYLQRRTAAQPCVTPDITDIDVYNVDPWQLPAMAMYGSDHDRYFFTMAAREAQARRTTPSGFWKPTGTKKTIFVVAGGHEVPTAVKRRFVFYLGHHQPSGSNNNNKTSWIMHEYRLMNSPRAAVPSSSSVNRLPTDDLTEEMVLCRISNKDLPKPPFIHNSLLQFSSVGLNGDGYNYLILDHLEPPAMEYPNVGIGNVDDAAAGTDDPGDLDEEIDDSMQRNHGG

[2] = target: T1, GST-ONAC023 (Oryza sativa (rice)); assay: EMSA; details: LightShift EMSA kit binding buffer (composition not given), room temperature, competitor 20 min then 1 µL of 10 µM FAM probe 20 min; 6% PAGE, 0.5x TBE, 4 °C; recombinant protein; residues 1-252; protein details: GST (N-terminal, pGEX-4T-1); label: 5' 6-FAM on strand 1

GAATTCTTCCGGATTCACCGAGGCACGAGAGTTCCGGATTCACCGAGGCACGAGAGGAGCTC (double strand) [ONAC023-BS native competitor]
binding result ([1]; unlabelled competitor vs FAM probe N1): binds

GAATTCTTCCGGATTCACCGAGGAACGAGAGTTCCGGATTCACCGAGGAACGAGAGGAGCTC (double strand) [ONAC023-BS-mut4 competitor]
binding result ([1]; unlabelled competitor vs FAM probe N1, CACG stated more crucial than other regions): binds more weakly

GAATTCTTCCGGATTCACCGAGGCACGAGAGTTCCGGATTCACCGAGGCACGAGAGGAGCTC (double strand) [ONAC023-BS FAM probe]
binding result [2]: binds
